Earlier results on 1 molecule are cited in EP1377579B1 (Aventis Pharmaceuticals Inc., priority 2000, dated 2002).

For this series, the system named is 60 human tumour cell lines. The settings on record: read-out: average IC50 value, proliferation; average over 60 human tumour cell lines; cited from earlier work.

With `CCC(CO)Nc1nc(NCc2ccccc2)c2ncn(C(C)C)c2n1` (stereo not shown) [roscovitine, 2-(1-ethyl-2-hydroxyethylamino)-6-benzylamino-9-isopropylpurine], the IC50 is 16 µM.
